# Percent effect of library compounds

By UniProt entry, the sequences of proteins in these tests, tags left out. Residues count along the entry.
UniProt I6X8D2, whole entry: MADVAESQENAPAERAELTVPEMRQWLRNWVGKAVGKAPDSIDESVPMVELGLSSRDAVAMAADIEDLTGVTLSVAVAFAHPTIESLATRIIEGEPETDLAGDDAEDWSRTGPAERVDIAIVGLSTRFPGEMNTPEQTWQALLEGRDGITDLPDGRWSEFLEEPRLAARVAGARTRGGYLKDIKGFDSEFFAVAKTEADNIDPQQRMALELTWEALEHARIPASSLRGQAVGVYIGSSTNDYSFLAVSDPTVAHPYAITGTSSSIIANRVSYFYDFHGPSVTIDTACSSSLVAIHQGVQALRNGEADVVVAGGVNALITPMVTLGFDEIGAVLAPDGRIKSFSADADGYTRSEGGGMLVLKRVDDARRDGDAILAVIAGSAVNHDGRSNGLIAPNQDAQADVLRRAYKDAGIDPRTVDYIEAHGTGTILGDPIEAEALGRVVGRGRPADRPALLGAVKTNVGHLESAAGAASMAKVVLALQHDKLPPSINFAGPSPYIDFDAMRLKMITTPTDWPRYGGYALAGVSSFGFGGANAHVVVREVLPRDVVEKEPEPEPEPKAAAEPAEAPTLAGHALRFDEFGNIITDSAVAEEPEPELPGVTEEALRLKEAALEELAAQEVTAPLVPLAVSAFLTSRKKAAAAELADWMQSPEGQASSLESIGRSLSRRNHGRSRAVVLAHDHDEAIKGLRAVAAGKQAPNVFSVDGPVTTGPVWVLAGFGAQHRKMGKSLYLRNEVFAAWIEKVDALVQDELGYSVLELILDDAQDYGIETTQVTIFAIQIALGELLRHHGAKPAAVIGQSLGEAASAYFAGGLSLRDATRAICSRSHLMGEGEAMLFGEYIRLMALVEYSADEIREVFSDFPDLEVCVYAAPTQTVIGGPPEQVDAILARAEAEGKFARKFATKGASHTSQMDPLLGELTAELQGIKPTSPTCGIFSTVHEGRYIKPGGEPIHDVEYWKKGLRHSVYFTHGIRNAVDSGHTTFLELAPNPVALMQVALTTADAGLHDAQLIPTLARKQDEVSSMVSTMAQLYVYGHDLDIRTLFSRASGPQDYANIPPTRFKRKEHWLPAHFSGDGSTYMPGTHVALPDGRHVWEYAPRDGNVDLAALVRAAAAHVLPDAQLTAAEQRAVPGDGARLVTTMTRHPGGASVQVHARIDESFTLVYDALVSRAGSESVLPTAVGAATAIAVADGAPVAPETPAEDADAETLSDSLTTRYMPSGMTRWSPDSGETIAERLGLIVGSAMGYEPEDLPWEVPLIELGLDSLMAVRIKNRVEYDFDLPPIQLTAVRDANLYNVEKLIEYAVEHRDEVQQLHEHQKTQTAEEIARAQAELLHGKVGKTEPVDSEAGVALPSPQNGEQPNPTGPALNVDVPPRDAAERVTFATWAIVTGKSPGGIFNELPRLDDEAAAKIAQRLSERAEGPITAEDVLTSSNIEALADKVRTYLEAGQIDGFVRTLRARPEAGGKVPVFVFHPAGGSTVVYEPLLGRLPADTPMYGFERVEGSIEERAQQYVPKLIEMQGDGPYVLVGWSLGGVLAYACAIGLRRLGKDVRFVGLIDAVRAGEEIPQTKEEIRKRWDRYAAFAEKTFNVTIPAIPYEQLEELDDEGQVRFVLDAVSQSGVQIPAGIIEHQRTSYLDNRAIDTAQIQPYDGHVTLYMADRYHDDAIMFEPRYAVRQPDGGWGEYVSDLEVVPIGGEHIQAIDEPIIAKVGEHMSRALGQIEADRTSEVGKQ
UniProt A4I591, 1-473: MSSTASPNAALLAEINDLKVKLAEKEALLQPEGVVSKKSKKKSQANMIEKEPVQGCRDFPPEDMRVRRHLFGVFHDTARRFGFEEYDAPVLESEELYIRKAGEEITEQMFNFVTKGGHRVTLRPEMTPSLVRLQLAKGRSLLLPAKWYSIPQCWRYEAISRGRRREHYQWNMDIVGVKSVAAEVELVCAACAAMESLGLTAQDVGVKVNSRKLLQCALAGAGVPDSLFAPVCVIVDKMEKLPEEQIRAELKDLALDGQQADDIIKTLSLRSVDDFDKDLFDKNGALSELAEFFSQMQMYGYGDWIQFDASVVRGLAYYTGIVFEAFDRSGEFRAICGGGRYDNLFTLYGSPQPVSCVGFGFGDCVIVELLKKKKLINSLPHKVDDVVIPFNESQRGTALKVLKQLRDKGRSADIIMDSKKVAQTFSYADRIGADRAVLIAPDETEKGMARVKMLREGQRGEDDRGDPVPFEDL

Each number is a percent effect as filed. The controls that fix the scale are not given in the record; negative values are as filed. Compounds were drawn at random from those tested, without regard to their results.

Pks13 thioesterase: 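Polyketide synthase Pks13, Mycobacterium tuberculosis (UniProt I6X8D2). Enzyme assay of the thioesterase domain of polyketide synthase 13; the read-out is not stated. Compounds at 30 µM. The record gives no direction; the compounds picked for IC50 retests had high values, so higher reads as stronger inhibition. Size under these conditions: about 67,000 compounds, about 300 of them at 50% or above in at least one test.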
LiHisRS: 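Enzyme assay of histidyl-tRNA synthetase; the read-out is not stated. Target: Histidine-tRNA ligase, Leishmania infantum (UniProt A4I591). Tested at 30 µM. The record gives no direction; compounds that gave an IC50 in retests scored well above the rest, so higher reads as stronger inhibition. The assay is labelled LdHisRS but filed under L. infantum. About 69,000 compounds were tested under these conditions; 0.6% (about 410) showed 50% or more at least once.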

For COC(=O)c1ccc(CNC(=O)CN2C[C@@H](NC(C)=O)[C@H](C(C)C)C2)o1 the result was Pks13 thioesterase: -14.65%; LiHisRS: 2.857%. CCn1ncc2[nH]c(-c3cc4c(cc3OC)OCO4)nc21 gave Pks13 thioesterase: -13.88%; LiHisRS: 11.48%. For CCO[C@H]1C[C@@H](O)C12CCN(C(=O)CCN1CCCC1=O)CC2 the result was Pks13 thioesterase: -12.59%; LiHisRS: 1.639%. For CCOCCCNc1cc(C)nn2cnnc12 the result was Pks13 thioesterase: -24.12%; LiHisRS: 10.34%. O=C(NC1CC1)c1ccnc(-c2cc(NCCO)nc3[nH]ccc23)c1 read LiHisRS: 16.81%. CNC(=O)C1Cc2ccccc2CN1CCC#N (configuration not stated) gave Pks13 thioesterase: -15.32%; LiHisRS: -7.463%. CCC1=N[C@@]2(CC[C@@H]3CN(S(C)(=O)=O)C[C@@H]32)C(=O)N1CC(C)C read Pks13 thioesterase: -7.521%; LiHisRS: 7.965%.

With Cn1nc(C(=O)N(CC(F)(F)F)c2cccc(Cl)c2)ccc1=O the screen gave Pks13 thioesterase: 0.176%; LiHisRS: 0%. O=C(NCC1CC1)C1CN(C(=O)c2ccnnc2)CC12CCOCC2 (configuration not stated) gave Pks13 thioesterase: -22.5%; LiHisRS: 16.81%. COc1ccc(-n2ccc(C(=O)N(C)C(C)C3(C)CC3)n2)cc1 (configuration not stated) read Pks13 thioesterase: 32.46%; LiHisRS: 15.22%. CCc1nc2n(n1)CC(NCc1cc3ccccc3o1)CC2 (configuration not stated) gave Pks13 thioesterase: 2.076%; LiHisRS: 7.843%. Result for CC(=O)N1CCCC(c2ncncc2-c2ccncc2)C1 (configuration not stated) was Pks13 thioesterase: 17.35%; LiHisRS: 8%. For O=C(CSCc1ccncc1)NCC1CCN(C2CC2)C1 (configuration not stated) the result was Pks13 thioesterase: 4.338%; LiHisRS: 20%. O=C(c1ccoc1)N1CCCCC1c1nc[nH]n1 (configuration not stated) gave Pks13 thioesterase: -32.03%; LiHisRS: 8.219%.

O=C(O)[C@@]12CN(c3cnccn3)C[C@@H]1CN(C1CCOCC1)C2 gave Pks13 thioesterase: -18.59%; LiHisRS: 12.9%. CCOCc1cncc2c1CCN(C(=O)c1cscn1)C2 read LiHisRS: 11.88%. For Cc1cc(C(=O)N2CC[C@@H]3CN(S(C)(=O)=O)CCO[C@@H]3C2)c(C)o1 the result was Pks13 thioesterase: -28.75%; LiHisRS: 12.03%. Cc1cnnn1Cc1ncn2c1CN(Cc1cccs1)CCC2 read Pks13 thioesterase: -14.21%; LiHisRS: 9.023%. With O=C(OCC1CCCN(C(=O)c2ccccc2)C1)c1cscn1 (configuration not stated) the screen gave Pks13 thioesterase: 10.24%; LiHisRS: -9.877%. For CN(CCc1ccc2c(c1)CCO2)CC1CCS(=O)(=O)C1 (configuration not stated) the result was Pks13 thioesterase: -19.69%; LiHisRS: 19.18%. Cc1ccc(NC(=O)C2CSCN2C(=O)c2cnn(C)c2)c(C)c1 (configuration not stated) read Pks13 thioesterase: -17.33%; LiHisRS: 0%.

CC(C)c1cc(C(=O)NCCc2nc(-c3cccnc3)n[nH]2)[nH]n1 read Pks13 thioesterase: -28.48%; LiHisRS: 0%. For Cn1cccc1C(=O)Nc1cc(F)ccc1OCC1CCCO1 (configuration not stated) the result was Pks13 thioesterase: -16.41%; LiHisRS: 0%. Result for CCCNC(=O)C1CCCN(Cc2ccc(-n3cncn3)c(C)c2)C1 (configuration not stated) was Pks13 thioesterase: -37.85%; LiHisRS: 6.897%. c1csc(CN2CCOCC3(CCN(C4CCOCC4)C3)C2)c1 (configuration not stated) gave Pks13 thioesterase: -17.32%; LiHisRS: -29.09%. CCCc1ncc(CNC2(c3ccc(Cl)cc3)CCC2)cn1 gave Pks13 thioesterase: 1.798%; LiHisRS: 24.21%. For O=C1[C@@H]2CN(c3ncnc4[nH]ccc34)C[C@]2(C(=O)O)CN1CC1CC1 the result was Pks13 thioesterase: -12%; LiHisRS: 8.197%. Cc1ccc(-c2nc(CN3CCCC3Cn3cc(C)cn3)no2)cc1 (configuration not stated) gave Pks13 thioesterase: -3.306%; LiHisRS: 28.38%.

Result for CN(C)CCOCC1CN(C(=O)[C@H]2CCCO2)Cc2ccnn2C1 (some centres not stated) was Pks13 thioesterase: -5.766%; LiHisRS: 7.547%. COc1ncccc1CN1CC[C@]2(C[C@@H](OCc3ccccn3)CO2)C1 gave Pks13 thioesterase: 8.614%; LiHisRS: 7.692%. O=C(NCC1Cn2nnc(-c3ccccc3)c2CO1)c1ccc[nH]1 (configuration not stated) read Pks13 thioesterase: -20.25%; LiHisRS: -29.09%. COc1ccc(C2Nc3cc(Cl)ccc3C3=NCCN32)cc1CO (configuration not stated) gave Pks13 thioesterase: 38.94%; LiHisRS: 14%. Result for O=C(Cn1cc(-c2ccccc2)cn1)N1CCNC1=O was Pks13 thioesterase: -5.448%; LiHisRS: 8.434%. With CCn1c(C2CCN(C(=O)COCC(F)(F)C(F)F)CC2)n[nH]c1=O the screen gave Pks13 thioesterase: -19.85%; LiHisRS: 10.53%. Result for COc1ccccc1CCNC(=O)NC(C)COCC(F)(F)F (configuration not stated) was Pks13 thioesterase: -28.22%; LiHisRS: 17.65%.

For Cc1nn(C)c(C)c1CN(C)C(=O)c1cccc(CCC(C)(C)O)c1 the result was Pks13 thioesterase: -30.42%; LiHisRS: 12.5%.

The last 4 entries again:

Compound	Pks13 thioesterase	LiHisRS
O=C(Cn1cc(-c2ccccc2)cn1)N1CCNC1=O	-5.448	8.434
CCn1c(C2CCN(C(=O)COCC(F)(F)C(F)F)CC2)n[nH]c1=O	-19.85	10.53
COc1ccccc1CCNC(=O)NC(C)COCC(F)(F)F (configuration not stated)	-28.22	17.65
Cc1nn(C)c(C)c1CN(C)C(=O)c1cccc(CCC(C)(C)O)c1	-30.42	12.5

Measurements from “University of Dundee, Small-Polar-MMV Screening Library” (2021), ChEMBL document CHEMBL3988442.